Laboratory results as given in EP0999856B1, “RADIOPHARMACEUTICALS FOR IMAGING INFECTION AND INFLAMMATION” (Bristol-Myers Squibb Pharma Company, priority 1996, dated 1998).
Some of these results come from one statement about several compounds together.

By UniProt entry, the sequences of proteins in these tests, tags left out. Where a name states a change or a piece, a line headed by the entry shows the natural chain unless it says otherwise.
UniProt Q15722: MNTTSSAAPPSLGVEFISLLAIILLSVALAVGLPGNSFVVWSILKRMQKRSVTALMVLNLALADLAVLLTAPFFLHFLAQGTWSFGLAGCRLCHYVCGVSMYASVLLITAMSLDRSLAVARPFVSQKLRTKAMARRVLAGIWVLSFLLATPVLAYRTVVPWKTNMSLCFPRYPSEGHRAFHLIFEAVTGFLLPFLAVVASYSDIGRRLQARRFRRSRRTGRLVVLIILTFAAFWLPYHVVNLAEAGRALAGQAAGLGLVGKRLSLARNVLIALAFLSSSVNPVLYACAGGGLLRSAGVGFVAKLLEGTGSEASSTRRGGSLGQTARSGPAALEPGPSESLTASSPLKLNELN

Biological target: PMN LTB4 receptor (Homo sapiens, UniProt Q15722)
Experiment: LTB4 Human Neutrophil (PMN) Binding Assay
Details: competition with [3H]LTB4 (1 nM), 10 min at 4° C; call rule not given here

| Compound | activity in the LTB4 Human Neutrophil (PMN) Binding Assay |
| --- | --- |
| O=C(CCCCCOc1cc(-c2ccccc2)cc(-c2ccc(F)cc2)n1)NC(Cc1ccc(OCCCNC(=O)c2ccc(N/N=C/c3ccccc3S(=O)(=O)O)nc2)cc1)C(=O)O (centres unmarked) [Example 5, 2-[[[5-[[N-[6-[(6-(4-fluorophenyl)-4-phenyl-2-pyridinyl)oxy]-hexanoyl]-tyrosine-O-[3-propanamino)]carbonyl]-2-pyridinyl]hydrazono]-methyl]-benzenesulfonic acid] | active |
| C=CCc1c(OCCCCNC(=O)c2ccc(N/N=C/c3ccccc3S(=O)(=O)O)nc2)ccc2c1CCCC2=O [Example 51, 2-Sulfobenzaldehyde 6-[4-(6-Hydrazinonicotinamido)butoxy]-5-(2-propenyl)-1,2,3,4-tetrahydronaphthalen-1-one Hydrazone] | active |
| O=C(O)CC(NC(=O)c1ccc(NN=Cc2ccccc2S(=O)(=O)O)nc1)C(=O)NC(Cc1ccccc1OCCCCCOc1cc(-c2ccccc2)cc(-c2ccccc2)n1)C(=O)O (single isomer, unassigned) [Example 67] | active |
| CN(CCc1ccccc1)C(=O)Cn1cc(/C=C/C(=O)NS(=O)(=O)c2ccc(N/N=C/c3ccccc3)nc2)c2cc(OCc3ccccc3)ccc21 [Example 17, N-((6-((1-aza-2-phenylvinyl)amino) (3-pyridyl))sulfonyl)-3-(1-((N-(2-phenylethyl)carbamoyl)methyl)-5-(phenylmethoxy)indol-3-yl)prop-2-enamide] | active |
| O=C(CCCCCOc1cc(-c2ccccc2)cc(-c2ccccc2)n1)NC(NC(=O)c1ccc(N/N=C/c2ccccc2S(=O)(=O)O)nc1)C(=O)O (stereo not drawn) [Example 56, 2-[[[5-[[N-[6-[(4,6-diphenyl-2-pyridinyl)oxy]-hexanoyl]-glycine-alpha-amino]carbonyl]-2-pyridinyl]hydrazono]-methyl]-benzenesulfonic acid] | active |
| CC(C)(CCCCOc1cc(-c2ccccc2)cc(-c2ccccc2)n1)C(=O)N[C@@H](Cc1ccc(O)cc1)C(=O)NCCCC[C@H](NC(=O)c1ccc(N/N=C/c2ccccc2S(=O)(=O)O)nc1)C(=O)NC[C@H](O)[C@@H](O)[C@H](O)[C@H](O)CO [Example 85] | active |
| C=CCc1c(OCCCCCOc2cccc(OCCCC(=O)NCCCNC(=O)c3ccc(N/N=C/c4ccccc4S(=O)(=O)O)nc3)c2CCC(=O)O)ccc2c1CCCC2=O [Example 34, 3-(6-(3-(N-(3-((6-((1-Aza-2-(2-sulfophenyl)vinyl)amino)(3-pyridyl))carbonylamino)-propyl)carbamoyl)propoxy)-2-(5-(5-oxo-1-prop-2-enyl(2-6,7,8-trihydronaphthyloxy))pentyloxy)phenyl)propanoic Acid] | active |
| O=C(NC(Cc1ccc(OCCCCCOc2cc(-c3ccccc3)cc(-c3ccccc3)n2)cc1)C(=O)O)c1ccc(NN=Cc2ccccc2S(=O)(=O)O)nc1 (centres unmarked) [Example 63] | active |
| CC(C)(CCCCOc1cc(-c2ccccc2)cc(-c2ccccc2)n1)CNC(=O)C(CC(=O)NC(CC(=O)O)C(=O)NC(CC(=O)O)C(=O)O)NC(=O)c1ccc(NN=Cc2ccccc2S(=O)(=O)O)nc1 (centres unmarked) [Example 71] | active |
| O=C(NC(Cc1ccccc1OCCCCCOc1cc(-c2ccc3c(c2)OCO3)cc(-c2ccccc2)n1)C(=O)O)c1ccc(NN=Cc2ccccc2S(=O)(=O)O)nc1 (centres unmarked) [Example 89, 2-((6-((1-aza-2-(2-sulfophenyl)vinyl)amino)(3-pyridyl))carbonylamino)-3-(2-(5-(4-benzo[d]1,3-dioxolan-5-yl-6-phenyl(2-pyridyloxy))pentyloxy)phenyl)propanoic acid] | active |
| CC(C)(CCCCOc1cc(-c2ccc3c(c2)OCO3)cc(-c2ccccc2)n1)CNC(=O)[C@H](CC(=O)O)NC(=O)c1ccc(N/N=C/c2ccccc2S(=O)(=O)O)nc1 [Example 79] | active |
